PubChem BioAssay AID248 (DTP/NCI, 2004)
The list is a part of this screen's results and no random one: it is rich in T/C values a quarter to a half above the control, in often repeated tests (any T/C) and in doses without a T/C. Other doses and runs of a compound stand elsewhere. T/C is the treated group as % of the vehicle group. Some entries give survivors of the animals treated and no T/C: the source holds a T/C of zero for them, seemingly a mark for toxic or unscored doses. Some doses without a T/C left all or most animals alive at the check, yet need not have been tolerated: the source hardly ever lists a survival T/C far under the control, and the zero likely stands for such cases as well. Survivors were counted at the toxicity check, usually on the fifth day, unless a day is given; later deaths do not show. Schedule codes are those of the source, read here as Q, the interval in days (D) or hours (H), X, the number of doses. Some entries were tested several times; the values are given in rising order. Where survival is the endpoint, this PubChem deposit counts one and a half times the control or more as active, and values a quarter to a half above the control carry no call in these data; other NCI protocols may use other cut-offs. Some T/C values are followed by the survivors on the day toxicity was checked, most often the fifth; without a count, all were alive then.

Test system: L1210 leukemia ip in BDF1 mice, survival T/C
Assay: NCI In Vivo Anticancer Drug Screen. Data for tumor model L1210 Leukemia (intraperitoneal) in B6D2F1 (BDF1) mice
Settings: T/C endpoint: mean survival time, higher T/C = longer survival
[1] = dose: 100.0 mg/kg/injection, schedule: Q01DX009 (ip), vehicle: saline with Tween-80
[2] = dose: 400.0 mg/kg/injection, schedule: Q04DX002 (ip), vehicle: Klucel (hydroxypropylcellulose) (HPC)

`CC(C)Oc1ccc(CC(N)C(=O)O)cc1N(CCCl)CCCl` (stereo unspecified) was tested, and the T/C (dose: 1.2 mg/kg/injection, schedule: Q01DX009 (ip), vehicle: carboxymethylcellulose (CMC)) was 135 % of control, the T/C (dose: 1.5 mg/kg/injection, schedule: Q01DX009 (ip), vehicle: carboxymethylcellulose (CMC)) was 132 and 135 % of control and the T/C (dose: 2.2 mg/kg/injection, schedule: Q01DX009 (ip), vehicle: carboxymethylcellulose (CMC)) was 143 % of control. The T/C (dose: 2.5 mg/kg/injection, schedule: Q01DX009 (ip), vehicle: carboxymethylcellulose (CMC)) was 132 % of control, the T/C (dose: 3.5 mg/kg/injection, schedule: Q01DX009 (ip), vehicle: saline) was 142 % of control and the T/C (dose: 5.0 mg/kg/injection, schedule: Q01DX001 (ip), vehicle: Klucel (hydroxypropylcellulose) (HPC)) was 125 % of control. The T/C (dose: 5.0 mg/kg/injection, schedule: Q01DX009 (ip), vehicle: carboxymethylcellulose (CMC)) was 130 % of control, the T/C (dose: 5.0 mg/kg/injection, schedule: Q01DX009 (ip), vehicle: saline) was 144 % of control and the T/C (dose: 7.5 mg/kg/injection, schedule: Q01DX001 (ip), vehicle: Klucel (hydroxypropylcellulose) (HPC)) was 129 % of control. For the same compound, the T/C (dose: 7.5 mg/kg/injection, schedule: Q01DX009 (ip), vehicle: saline) was 138 % of control [5 of 6 alive], the survivor count (dose: 8.8 mg/kg/injection, schedule: Q01DX009 (ip), vehicle: carboxymethylcellulose (CMC)) was 6 of 6 and the T/C (dose: 10.0 mg/kg/injection, schedule: Q01DX009 (ip), vehicle: saline) was 144 % of control. For the same compound, the T/C (dose: 11.0 mg/kg/injection, schedule: Q01DX001 (ip), vehicle: Klucel (hydroxypropylcellulose) (HPC)) was 148 % of control, the survivor count (dose: 13.3 mg/kg/injection, schedule: Q01DX009 (ip), vehicle: carboxymethylcellulose (CMC)) was 3 of 6 and the T/C (dose: 15.0 mg/kg/injection, schedule: Q01DX001 (ip), vehicle: saline with Tween-80) was 131 % of control. The T/C (dose: 15.0 mg/kg/injection, schedule: Q01DX009 (ip), vehicle: saline) was 128 % of control, the T/C (dose: 16.5 mg/kg/injection, schedule: Q01DX001 (ip), vehicle: Klucel (hydroxypropylcellulose) (HPC)) was 140 % of control and the survivor count (dose: 20.0 mg/kg/injection, schedule: Q01DX009 (ip), vehicle: carboxymethylcellulose (CMC)) was 1 of 6. For the same compound, the T/C (dose: 21.0 mg/kg/injection, schedule: Q01DX001 (ip), vehicle: saline with Tween-80) was 135 % of control, the T/C (dose: 29.0 mg/kg/injection, schedule: Q01DX001 (ip), vehicle: saline) was 130 % of control and the T/C (dose: 30.0 mg/kg/injection, schedule: Q01DX001 (ip), vehicle: carboxymethylcellulose (CMC)) was 142 % of control. The survivor count (dose: 30.0 mg/kg/injection, schedule: Q01DX009 (ip), vehicle: carboxymethylcellulose (CMC)) was 0 of 6, the T/C (dose: 45.0 mg/kg/injection, schedule: Q01DX001 (ip), vehicle: saline) was 146 % of control and the survivor count (dose: 60.0 mg/kg/injection, schedule: Q01DX001 (ip), vehicle: carboxymethylcellulose (CMC)) was 3 of 6. For the same compound, the survivor count (dose: 65.0 mg/kg/injection, schedule: Q01DX001 (ip), vehicle: saline) was 1 of 6, the survivor count (dose: 75.0 mg/kg/injection, schedule: Q01DX001 (sc), vehicle: carboxymethylcellulose (CMC)) was 1 of 6 and the survivor count (dose: 150.0 mg/kg/injection, schedule: Q01DX001 (sc), vehicle: carboxymethylcellulose (CMC)) was 0 of 6. For the same compound, the survivor count (dose: 300.0 mg/kg/injection, schedule: Q01DX001 (sc), vehicle: carboxymethylcellulose (CMC)) was 0 of 6.

With `C/C=C/CNc1ccc(C)cc1` the T/C [1] was 140 % of control.

For `CSC(C#N)NC(=O)c1ccc([N+](=O)[O-])cc1` (stereo unspecified), the T/C [2] was 128 % of control [2 of 3 alive] and the survivor count [2] was 0 of 3.

`O=C(NCCCl)NN1CCCCC1` was tested, and the survivor count (dose: 400.0 mg/kg/injection, schedule: Q04DX003 (ip), vehicle: Klucel (hydroxypropylcellulose) (HPC)) was 3 of 6.

`CC(C)(O)C(=O)N/N=C/c1ccc(Cl)cc1Cl` was tested, and the survivor count (dose: 50.0 mg/kg/injection, schedule: Q01DX009 (ip), vehicle: saline with Tween-80) was 2 of 6, the survivor count [1] was 1 of 6 and 2 of 6 and the survivor count (dose: 200.0 mg/kg/injection, schedule: Q01DX009 (ip), vehicle: saline with Tween-80) was 0 of 6. For the same compound, the survivor count (dose: 400.0 mg/kg/injection, schedule: Q01DX009 (ip), vehicle: saline with Tween-80) was 0 of 6.
